In patent publication US20190111107A1, “METHODS FOR MODULATING INTESTINAL MICROBIOTA” (DEFENSIN THERAPEUTICS APS, priority 2016, published 2019) one finds food intake data, which are given here for 2 substances.

Positions of bridges follow the written chain, without caps; N, C: chain ends. No end group written: not given here.

The test system of this data set is diet-induced obese mice. The experiment in a line: Interventional treatment with defensins in diet-induced obese mice: weight, fat percentage, glucose homeostasis. It is filed as in vivo, C57/BL/6J mice. Particulars: HFD fed groups, entire study period. From the text: FIG. 1B. Schematic outline of the experimental set up for investigating the effects of mammalian alfa and/or beta defensins on mice metabolism. At week −1, the C57/BL/6J mice arrived. At week 0 feces was collected. During run-in between week 0 and week 12 the mice were fed a high fat diet. At week 12 the mice were clinically examined by magnetic resonance scan to estimate fat distribution, feces was collected and oral glucose tolerance test (OGTT) and glucose-stimulated insulin secretion (GSIS) performed. At week 13-0 the mice were divided in groups and cages with 4 mice percage and 3 cages per group. At week 0, 12 and 13-10, the microbiome of the faeces was analysed. At week 13-2, 13-4, 13-6, 13-8 and 13-10 the mice were scanned and blood glucose and insulin levels were measured. At week 13-9, insulin tolerance test (ITT) was conducted. At week 13-10 (termination), several analyses were conducted, in particular the mice were weighed and scanned, and plasma composition and microbiota composition of colon, cecum and small intestine were assessed. In addition, iWAT, eWAT and liver weight were measured.
Mice and diets. The experiment elucidates the effect of hBD-2 and HD5 in the treatment of metabolic syndrome (MetS) in diet-induced obese mice. A run-in period of 13 weeks where mice were fed a very HFD (60% energy from fat) preceded the intervention. […]

For “GIGDPVTCLKSGAICHPVFCPRRYKQIGTCGLPGTKCCKKP (disulfide 8-37, 15-30, 20-38 (inferred)) [hBD-2, human beta defensin 2]”, the food intake entry is reported as “equal food intake throughout the entire study period”. For the substance “human intestinal alpha defensin 5 (ATCYCRTGRCATRESLSGVCEISGRLYRLCCR; listed as Homo sapiens) [HD5]”, the food intake result is “same food intake during the study period”.
